Measurements as given in doi:10.1101/2021.08.09.455745.

Target: ARAP1 (human (endogenous in fetal RPE cells))
Assay: affinity purification with mass spectrometry

Row | binding | Binder
1 | binds | LRCH3 (protein, UniProt Q96II8 1-777) MAAAGLVAVAAAAEYSGTVASGGNLPGVHCGPSSGAGPGFGPGSWSRSLDRALEEAAVTGVLSLSGRKLREFPRGAANHDLTDTTRADLSRNRLSEIPIEACHFVSLENLNLYQNCIRYIPEAILNLQALTFLNISRNQLSTLPVHLCNLPLKVLIASNNKLVSLPEEIGHLRHLMELDVSCNEIQTIPSQIGNLEALRDLNVRRNHLVHLPEELAELPLIRLDFSCNKITTIPVCYRNLRHLQTITLDNNPLQSPPAQICIKGKVHIFKYLNIQACKIAPDLPDYDRRPLGFGSCHEELYSSRPYGALDSGFNSVDSGDKRWSGNEPTDEFSDLPLRVAEITKEQRLRRESQYQENRGSLVVTNGGVEHDLDQIDYIDSCTAEEEEAEVRQPKGPDPDSLSSQFMAYIEQRRISHEGSPVKPVAIREFQKTEDMRRYLHQNRVPAEPSSLLSLSASHNQLSHTDLELHQRREQLVERTRREAQLAALQYEEEKIRTKQIQRDAVLDFVKQKASQSPQKQHPLLDGVDGECPFPSRRSQHTDDSALCMSLSGLNQVGCAATLPHSSAFTPLKSDDRPNALLSSPATETVHHSPAYSFPAAIQRNQPQRPESFLFRAGVRAETNKGHASPLPPSAAPTTDSTDSITGQNSRQREEELELIDQLRKHIEYRLKVSLPCDLGAALTDGVVLCHLANHVRPRSVPSIHVPSPAVPKLTMAKCRRNVENFLEACRKIGVPQEQLCLPLHILEEKGLSQVAVTVQALLELAPPKQQQHQLSAV
2 | binds | DAB2 (protein, UniProt P98082 1-770) MSNEVETSATNGQPDQQAAPKAPSKKEKKKGPEKTDEYLLARFKGDGVKYKAKLIGIDDVPDARGDKMSQDSMMKLKGMAAAGRSQGQHKQRIWVNISLSGIKIIDEKTGVIEHEHPVNKISFIARDVTDNRAFGYVCGGEGQHQFFAIKTGQQAEPLVVDLKDLFQVIYNVKKKEEEKKKIEEASKAVENGSEALMILDDQTNKLKSGVDQMDLFGDMSTPPDLNSPTESKDILLVDLNSEIDTNQNSLRENPFLTNGITSCSLPRPTPQASFLPENAFSANLNFFPTPNPDPFRDDPFTQPDQSTPSSFDSLKSPDQKKENSSSSSTPLSNGPLNGDVDYFGQQFDQISNRTGKQEAQAGPWPFSSSQTQPAVRTQNGVSEREQNGFSVKSSPNPFVGSPPKGLSIQNGVKQDLESSVQSSPHDSIAIIPPPQSTKPGRGRRTAKSSANDLLASDIFAPPVSEPSGQASPTGQPTALQPNPLDLFKTSAPAPVGPLVGLGGVTVTLPQAGPWNTASLVFNQSPSMAPGAMMGGQPSGFSQPVIFGTSPAVSGWNQPSPFAASTPPPVPVVWGPSASVAPNAWSTTSPLGNPFQSNIFPAPAVSTQPPSMHSSLLVTPPQPPPRAGPPKDISSDAFTALDPLGDKEIKDVKEMFKDFQLRQPPAVPARKGEQTSSGTLSAFASYFNSKVGIPQENADHDDFDANQLLNKINEPPKPAPRQVSLPVTKSTDNAFENPFFKDSFGSSQASVASSQPVSSEMYRDPFGNPFA
3 | binds | STON2 (protein, UniProt Q8WXE9 1-905) MTTLDHVIATHQSEWVSFNEEPPFPAHSQGGTEEHLPGLSSSPDQSESSSGENHVVDGGSQDHSHSEQDDSSEKMGLISEAASPPGSPEQPPPDLASAISNWVQFEDDTPWASTSPPHQETAETALPLTMPCWTCPSFDSLGRCPLTSESSWTTHSEDTSSPSFGCSYTDLQLINAEEQTSGQASGADSTDNSSSLQEDEEVEMEAISWQASSPAMNGHPAPPVTSARFPSWVTFDDNEVSCPLPPVTSPLKPNTPPSASVIPDVPYNSMGSFKKRDRPKSTLMNFSKVQKLDISSLNRTPSVTEASPWRATNPFLNETLQDVQPSPINPFSAFFEEQERRSQNSSISSTTGKSQRDSLIVIYQDAISFDDSSKTQSHSDAVEKLKQLQIDDPDHFGSATLPDDDPVAWIELDAHPPGSARSQPRDGWPMMLRIPEKKNIMSSRHWGPIFVKLTDTGYLQLYYEQGLEKPFREFKLEICHEISEPRLQNYDENGRIHSLRIDRVTYKEKKKYQPKPAVAHTAEREQVIKLGTTNYDDFLSFIHAVQDRLMDLPVLSMDLSTVGLNYLEEEITVDVRDEFSGIVSKGDNQILQHHVLTRIHILSFLSGLAECRLGLNDILVKGNEIVLRQDIMPTTTTKWIKLHECRFHGCVDEDVFHNSRVILFNPLDACRFELMRFRTVFAEKTLPFTLRTATSVNGAEVEVQSWLRMSTGFSANRDPLTQVPCENVMIRYPVPSEWVKNFRRESVLGEKSLKAKVNRGASFGSTSVSGSEPVMRVTLGTAKYEHAFNSIVWRINRLPDKNSASGHPHCFFCHLELGSDREVPSRFANHVNVEFSMPTTSASKASVRSISVEDKTDVRKWVNYSAHYSYQVALGSIWLMLPTPFVHPTTLPLLFLLAMLTMFAW
4 | binds | CLTA (protein, UniProt P09496 1-248) MAELDPFGAPAGAPGGPALGNGVAGAGEEDPAAAFLAQQESEIAGIENDEAFAILDGGAPGPQPHGEPPGGPDAVDGVMNGEYYQESNGPTDSYAAISQVDRLQSEPESIRKWREEQMERLEALDANSRKQEAEWKEKAIKELEEWYARQDEQLQKTKANNRVADEAFYKQPFADVIGYVTNINHPCYSLEQAAEEAFVNDIDESSPGTEWERVARLCDFNPKSSKQAKDVSRMRSVLISLKQAPLVH
5 | binds | ankycorbin (protein, UniProt Q9P0K7 1-980) MKSLKAKFRKSDTNEWNKNDDRLLQAVENGDAEKVASLLGKKGASATKHDSEGKTAFHLAAAKGHVECLRVMITHGVDVTAQDTTGHSALHLAAKNSHHECIRKLLQSKCPAESVDSSGKTALHYAAAQGCLQAVQILCEHKSPINLKDLDGNIPLLLAVQNGHSEICHFLLDHGADVNSRNKSGRTALMLACEIGSSNAVEALIKKGADLNLVDSLGYNALHYSKLSENAGIQSLLLSKISQDADLKTPTKPKQHDQVSKISSERSGTPKKRKAPPPPISPTQLSDVSSPRSITSTPLSGKESVFFAEPPFKAEISSIRENKDRLSDSTTGADSLLDISSEADQQDLLSLLQAKVASLTLHNKELQDKLQAKSPKEAEADLSFDSYHSTQTDLGPSLGKPGETSPPDSKSSPSVLIHSLGKSTTDNDVRIQQLQEILQDLQKRLESSEAERKQLQVELQSRRAELVCLNNTEISENSSDLSQKLKETQSKYEEAMKEVLSVQKQMKLGLVSPESMDNYSHFHELRVTEEEINVLKQDLQNALEESERNKEKVRELEEKLVEREKGTVIKPPVEEYEEMKSSYCSVIENMNKEKAFLFEKYQEAQEEIMKLKDTLKSQMTQEASDEAEDMKEAMNRMIDELNKQVSELSQLYKEAQAELEDYRKRKSLEDVTAEYIHKAEHEKLMQLTNVSRAKAEDALSEMKSQYSKVLNELTQLKQLVDAQKENSVSITEHLQVITTLRTAAKEMEEKISNLKEHLASKEVEVAKLEKQLLEEKAAMTDAMVPRSSYEKLQSSLESEVSVLASKLKESVKEKEKVHSEVVQIRSEVSQVKREKENIQTLLKSKEQEVNELLQKFQQAQEELAEMKRYAESSSKLEEDKDKKINEMSKEVTKLKEALNSLSQLSYSTSSSKRQSQQLEALQQQVKQLQNQLAECKKQHQEVISVYRMHLLYAVQGQMDEDVQKVLKQILTMCKNQSQKK
6 | binds | HIP1 (protein, UniProt O00291 1-1037) MDRMASSMKQVPNPLPKVLSRRGVGAGLEAAERESFERTQTVSINKAINTQEVAVKEKHARTCILGTHHEKGAQTFWSVVNRLPLSSNAVLCWKFCHVFHKLLRDGHPNVLKDSLRYRNELSDMSRMWGHLSEGYGQLCSIYLKLLRTKMEYHTKNPRFPGNLQMSDRQLDEAGESDVNNFFQLTVEMFDYLECELNLFQTVFNSLDMSRSVSVTAAGQCRLAPLIQVILDCSHLYDYTVKLLFKLHSCLPADTLQGHRDRFMEQFTKLKDLFYRSSNLQYFKRLIQIPQLPENPPNFLRASALSEHISPVVVIPAEASSPDSEPVLEKDDLMDMDASQQNLFDNKFDDIFGSSFSSDPFNFNSQNGVNKDEKDHLIERLYREISGLKAQLENMKTESQRVVLQLKGHVSELEADLAEQQHLRQQAADDCEFLRAELDELRRQREDTEKAQRSLSEIERKAQANEQRYSKLKEKYSELVQNHADLLRKNAEVTKQVSMARQAQVDLEREKKELEDSLERISDQGQRKTQEQLEVLESLKQELATSQRELQVLQGSLETSAQSEANWAAEFAELEKERDSLVSGAAHREEELSALRKELQDTQLKLASTEESMCQLAKDQRKMLLVGSRKAAEQVIQDALNQLEEPPLISCAGSADHLLSTVTSISSCIEQLEKSWSQYLACPEDISGLLHSITLLAHLTSDAIAHGATTCLRAPPEPADSLTEACKQYGRETLAYLASLEEEGSLENADSTAMRNCLSKIKAIGEELLPRGLDIKQEELGDLVDKEMAATSAAIETATARIEEMLSKSRAGDTGVKLEVNERILGCCTSLMQAIQVLIVASKDLQREIVESGRGTASPKEFYAKNSRWTEGLISASKAVGWGATVMVDAADLVVQGRGKFEELMVCSHEIAASTAQLVAASKVKADKDSPNLAQLQQASRGVNQATAGVVASTISGKSQIEETDNMDFSSMTLTQIKRQEMDSQVRVLELENELQKERQKLGELRKKHYELAGVAEGWEEGTEASPPTLQEVVTEKE

Results are given in words; binding and its absence hold for the method and conditions named. In cells and extracts the contact can be indirect. These calls come from enrichment with a bait or labelling near it, and not all partners need be listed.
